Experimental data taken from the supplement of paper PMC10849652.
This is one part of the list.

The chains behind the UniProt entries cited, without tags or fusion partners. Where a name states a change or a piece, a line headed by the entry shows the natural chain unless it says otherwise.
UniProt Q92575: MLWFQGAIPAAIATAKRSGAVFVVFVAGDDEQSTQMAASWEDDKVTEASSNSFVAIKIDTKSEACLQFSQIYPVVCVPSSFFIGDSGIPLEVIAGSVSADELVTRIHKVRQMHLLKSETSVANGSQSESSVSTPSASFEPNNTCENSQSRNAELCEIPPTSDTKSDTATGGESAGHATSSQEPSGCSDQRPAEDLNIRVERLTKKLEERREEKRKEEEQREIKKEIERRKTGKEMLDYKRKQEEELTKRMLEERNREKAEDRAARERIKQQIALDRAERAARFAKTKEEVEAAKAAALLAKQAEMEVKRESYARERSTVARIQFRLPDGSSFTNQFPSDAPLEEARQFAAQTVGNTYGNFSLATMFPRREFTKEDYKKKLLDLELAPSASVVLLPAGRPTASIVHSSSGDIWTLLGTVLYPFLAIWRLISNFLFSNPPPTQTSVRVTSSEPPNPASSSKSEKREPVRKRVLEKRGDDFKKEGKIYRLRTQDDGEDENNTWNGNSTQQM
UniProt P61758, whole entry, looked up: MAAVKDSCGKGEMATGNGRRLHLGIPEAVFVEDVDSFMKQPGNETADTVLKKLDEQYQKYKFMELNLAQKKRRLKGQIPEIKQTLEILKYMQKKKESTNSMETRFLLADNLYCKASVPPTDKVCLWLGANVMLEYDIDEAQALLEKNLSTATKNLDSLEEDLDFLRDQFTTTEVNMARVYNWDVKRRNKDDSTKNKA
UniProt Q9UPU5: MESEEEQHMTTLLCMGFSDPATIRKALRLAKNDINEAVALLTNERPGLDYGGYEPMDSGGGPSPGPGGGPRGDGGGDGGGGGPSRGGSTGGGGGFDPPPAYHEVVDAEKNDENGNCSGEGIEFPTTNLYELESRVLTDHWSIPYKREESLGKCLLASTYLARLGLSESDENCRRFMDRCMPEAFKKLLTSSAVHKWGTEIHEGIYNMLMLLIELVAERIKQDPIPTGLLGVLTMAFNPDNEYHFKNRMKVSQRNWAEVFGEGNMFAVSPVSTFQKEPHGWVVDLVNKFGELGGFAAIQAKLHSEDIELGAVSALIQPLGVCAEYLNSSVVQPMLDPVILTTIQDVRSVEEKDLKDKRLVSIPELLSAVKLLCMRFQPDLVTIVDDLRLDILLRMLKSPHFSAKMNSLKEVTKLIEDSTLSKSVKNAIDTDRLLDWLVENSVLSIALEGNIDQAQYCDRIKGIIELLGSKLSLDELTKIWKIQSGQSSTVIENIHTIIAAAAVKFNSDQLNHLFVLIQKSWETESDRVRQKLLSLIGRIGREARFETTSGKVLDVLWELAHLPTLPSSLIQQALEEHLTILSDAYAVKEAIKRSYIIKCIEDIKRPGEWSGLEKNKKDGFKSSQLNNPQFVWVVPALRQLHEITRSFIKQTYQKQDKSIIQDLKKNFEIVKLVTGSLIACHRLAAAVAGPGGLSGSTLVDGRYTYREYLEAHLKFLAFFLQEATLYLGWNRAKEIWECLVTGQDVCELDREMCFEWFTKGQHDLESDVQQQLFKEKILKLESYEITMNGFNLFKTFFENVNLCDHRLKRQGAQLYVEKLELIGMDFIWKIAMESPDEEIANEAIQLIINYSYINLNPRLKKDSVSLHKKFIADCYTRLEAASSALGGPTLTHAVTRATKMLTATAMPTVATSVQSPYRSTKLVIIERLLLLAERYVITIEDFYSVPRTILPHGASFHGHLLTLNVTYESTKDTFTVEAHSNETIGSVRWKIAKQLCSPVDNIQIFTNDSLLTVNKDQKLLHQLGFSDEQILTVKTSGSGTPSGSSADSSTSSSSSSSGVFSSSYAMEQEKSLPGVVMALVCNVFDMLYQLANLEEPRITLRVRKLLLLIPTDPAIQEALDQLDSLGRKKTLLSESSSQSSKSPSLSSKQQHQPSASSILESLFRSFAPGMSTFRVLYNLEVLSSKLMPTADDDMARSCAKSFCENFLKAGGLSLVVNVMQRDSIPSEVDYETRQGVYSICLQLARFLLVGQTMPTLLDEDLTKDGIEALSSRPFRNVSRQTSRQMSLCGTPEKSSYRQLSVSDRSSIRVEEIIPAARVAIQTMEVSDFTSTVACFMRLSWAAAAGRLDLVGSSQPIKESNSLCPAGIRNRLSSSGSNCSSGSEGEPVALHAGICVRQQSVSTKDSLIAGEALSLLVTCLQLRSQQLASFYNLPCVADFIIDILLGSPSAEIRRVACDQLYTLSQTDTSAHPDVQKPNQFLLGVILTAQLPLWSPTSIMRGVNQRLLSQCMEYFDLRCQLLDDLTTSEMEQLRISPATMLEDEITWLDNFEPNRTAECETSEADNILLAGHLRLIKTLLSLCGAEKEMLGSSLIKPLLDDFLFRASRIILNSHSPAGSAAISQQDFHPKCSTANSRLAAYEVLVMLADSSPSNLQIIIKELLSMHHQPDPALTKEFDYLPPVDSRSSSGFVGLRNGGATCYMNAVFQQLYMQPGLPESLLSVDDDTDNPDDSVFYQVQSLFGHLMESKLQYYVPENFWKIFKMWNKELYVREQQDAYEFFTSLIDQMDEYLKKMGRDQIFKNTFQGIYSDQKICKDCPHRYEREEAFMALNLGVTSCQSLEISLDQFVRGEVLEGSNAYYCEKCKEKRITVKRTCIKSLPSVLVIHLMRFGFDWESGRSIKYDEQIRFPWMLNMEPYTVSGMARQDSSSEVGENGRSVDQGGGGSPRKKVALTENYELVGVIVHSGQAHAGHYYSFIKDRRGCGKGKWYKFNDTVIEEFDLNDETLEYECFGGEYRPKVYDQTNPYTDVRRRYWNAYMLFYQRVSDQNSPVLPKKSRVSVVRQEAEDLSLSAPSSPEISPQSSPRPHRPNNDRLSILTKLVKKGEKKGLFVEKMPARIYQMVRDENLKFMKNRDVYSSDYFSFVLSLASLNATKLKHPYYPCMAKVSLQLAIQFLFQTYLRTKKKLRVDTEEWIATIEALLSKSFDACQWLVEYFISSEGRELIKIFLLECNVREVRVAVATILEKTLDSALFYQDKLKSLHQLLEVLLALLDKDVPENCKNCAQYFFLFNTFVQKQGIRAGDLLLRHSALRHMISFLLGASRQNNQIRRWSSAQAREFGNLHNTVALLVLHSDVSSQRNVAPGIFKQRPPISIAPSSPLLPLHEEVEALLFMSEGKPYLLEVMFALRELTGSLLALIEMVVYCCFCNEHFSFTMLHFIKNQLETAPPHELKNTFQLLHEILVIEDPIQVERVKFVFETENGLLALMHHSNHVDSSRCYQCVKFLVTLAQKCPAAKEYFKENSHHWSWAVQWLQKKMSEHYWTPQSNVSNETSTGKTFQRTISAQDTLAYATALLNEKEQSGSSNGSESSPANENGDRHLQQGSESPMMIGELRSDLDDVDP
UniProt O95292, whole entry, looked up: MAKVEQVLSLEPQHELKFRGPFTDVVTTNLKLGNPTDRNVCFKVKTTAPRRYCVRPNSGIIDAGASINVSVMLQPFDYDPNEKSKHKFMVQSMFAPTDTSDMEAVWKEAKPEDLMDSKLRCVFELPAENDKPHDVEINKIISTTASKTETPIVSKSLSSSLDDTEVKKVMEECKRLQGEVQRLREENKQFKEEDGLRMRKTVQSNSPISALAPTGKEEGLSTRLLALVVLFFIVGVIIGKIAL
UniProt Q04323: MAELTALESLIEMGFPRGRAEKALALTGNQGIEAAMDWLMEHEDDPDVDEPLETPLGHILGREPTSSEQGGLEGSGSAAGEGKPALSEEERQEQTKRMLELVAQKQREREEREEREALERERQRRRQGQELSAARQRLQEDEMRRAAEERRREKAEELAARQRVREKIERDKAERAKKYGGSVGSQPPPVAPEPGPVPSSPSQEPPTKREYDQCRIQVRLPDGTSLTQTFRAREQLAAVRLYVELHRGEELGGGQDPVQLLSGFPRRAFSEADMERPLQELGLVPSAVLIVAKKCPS
UniProt P11172: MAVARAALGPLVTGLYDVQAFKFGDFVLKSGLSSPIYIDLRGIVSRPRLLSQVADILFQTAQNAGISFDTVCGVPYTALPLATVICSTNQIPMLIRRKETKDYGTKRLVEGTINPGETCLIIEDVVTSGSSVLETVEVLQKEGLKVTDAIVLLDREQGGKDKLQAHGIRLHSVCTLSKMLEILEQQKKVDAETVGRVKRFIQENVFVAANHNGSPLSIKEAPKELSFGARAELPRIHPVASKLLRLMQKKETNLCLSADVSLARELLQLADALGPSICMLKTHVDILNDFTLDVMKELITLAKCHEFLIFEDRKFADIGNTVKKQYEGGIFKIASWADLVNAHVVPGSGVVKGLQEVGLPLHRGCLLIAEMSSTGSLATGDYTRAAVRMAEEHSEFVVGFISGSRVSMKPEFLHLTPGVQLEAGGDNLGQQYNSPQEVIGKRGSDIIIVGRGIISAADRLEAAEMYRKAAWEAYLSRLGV
UniProt Q96RL1: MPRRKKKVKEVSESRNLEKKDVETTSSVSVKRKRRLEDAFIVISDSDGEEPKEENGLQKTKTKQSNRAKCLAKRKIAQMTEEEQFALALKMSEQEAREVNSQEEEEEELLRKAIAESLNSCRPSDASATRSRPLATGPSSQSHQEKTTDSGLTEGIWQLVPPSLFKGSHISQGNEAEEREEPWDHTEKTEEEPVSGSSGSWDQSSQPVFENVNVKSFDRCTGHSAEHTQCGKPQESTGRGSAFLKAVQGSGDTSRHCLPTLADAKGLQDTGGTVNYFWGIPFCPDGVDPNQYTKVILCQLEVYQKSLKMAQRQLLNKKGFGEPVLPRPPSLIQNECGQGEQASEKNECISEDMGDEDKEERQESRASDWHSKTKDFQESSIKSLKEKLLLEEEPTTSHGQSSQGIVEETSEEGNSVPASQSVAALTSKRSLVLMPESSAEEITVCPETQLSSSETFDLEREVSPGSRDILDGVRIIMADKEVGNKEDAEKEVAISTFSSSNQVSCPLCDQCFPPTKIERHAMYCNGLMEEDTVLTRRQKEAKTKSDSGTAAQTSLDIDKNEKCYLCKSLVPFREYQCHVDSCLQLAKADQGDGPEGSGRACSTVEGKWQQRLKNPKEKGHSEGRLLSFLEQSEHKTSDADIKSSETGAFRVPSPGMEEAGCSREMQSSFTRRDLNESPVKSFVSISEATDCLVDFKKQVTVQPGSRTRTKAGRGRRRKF
UniProt Q9UBK9, whole entry, looked up: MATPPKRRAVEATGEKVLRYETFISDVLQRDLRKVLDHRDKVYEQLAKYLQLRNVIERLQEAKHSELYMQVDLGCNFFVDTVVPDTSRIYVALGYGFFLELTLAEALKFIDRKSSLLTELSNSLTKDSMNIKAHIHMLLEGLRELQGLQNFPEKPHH
UniProt Q14139: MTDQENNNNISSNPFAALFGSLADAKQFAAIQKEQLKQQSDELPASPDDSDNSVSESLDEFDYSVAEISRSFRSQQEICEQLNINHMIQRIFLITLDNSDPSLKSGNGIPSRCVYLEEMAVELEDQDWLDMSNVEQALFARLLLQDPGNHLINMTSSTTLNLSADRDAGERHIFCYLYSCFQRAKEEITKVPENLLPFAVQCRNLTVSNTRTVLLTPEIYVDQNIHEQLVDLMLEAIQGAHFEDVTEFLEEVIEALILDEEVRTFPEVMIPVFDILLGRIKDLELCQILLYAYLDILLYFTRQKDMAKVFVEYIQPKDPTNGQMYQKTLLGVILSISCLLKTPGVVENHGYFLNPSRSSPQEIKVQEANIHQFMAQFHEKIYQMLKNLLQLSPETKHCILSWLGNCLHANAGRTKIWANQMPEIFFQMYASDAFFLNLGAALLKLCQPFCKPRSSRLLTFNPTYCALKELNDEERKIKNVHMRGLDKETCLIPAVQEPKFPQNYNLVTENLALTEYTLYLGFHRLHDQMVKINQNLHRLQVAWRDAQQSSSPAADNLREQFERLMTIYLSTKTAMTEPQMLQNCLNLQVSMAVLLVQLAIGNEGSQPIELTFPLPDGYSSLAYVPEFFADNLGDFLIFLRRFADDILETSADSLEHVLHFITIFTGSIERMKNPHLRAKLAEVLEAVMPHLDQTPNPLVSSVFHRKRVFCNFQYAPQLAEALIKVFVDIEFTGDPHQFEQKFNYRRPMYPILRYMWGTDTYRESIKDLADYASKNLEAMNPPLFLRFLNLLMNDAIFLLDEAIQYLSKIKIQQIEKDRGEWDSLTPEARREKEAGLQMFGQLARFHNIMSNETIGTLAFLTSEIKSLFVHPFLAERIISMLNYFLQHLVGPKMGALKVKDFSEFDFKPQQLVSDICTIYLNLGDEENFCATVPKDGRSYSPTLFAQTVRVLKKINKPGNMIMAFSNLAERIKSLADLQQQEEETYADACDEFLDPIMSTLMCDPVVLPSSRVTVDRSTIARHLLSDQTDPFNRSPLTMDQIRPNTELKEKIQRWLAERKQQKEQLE
UniProt Q9NZ43: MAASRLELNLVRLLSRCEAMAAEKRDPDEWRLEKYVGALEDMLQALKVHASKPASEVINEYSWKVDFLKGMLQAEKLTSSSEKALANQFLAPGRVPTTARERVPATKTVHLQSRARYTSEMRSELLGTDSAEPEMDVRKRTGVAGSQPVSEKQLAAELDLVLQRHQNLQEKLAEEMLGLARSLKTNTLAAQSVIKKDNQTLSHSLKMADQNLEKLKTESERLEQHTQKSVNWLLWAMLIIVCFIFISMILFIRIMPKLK

Columns and labels:
Assay in all cases: log2 fold change, soluble protein after heating vs DMSO (PISA); higher = thermal stabilisation; K562 cells, 10 uM, 30 min; active = over 0.2 and 3.5 SD of the protein, either way, in both replicates (recomputed)
bafetinib = compound: Cc1ccc(NC(=O)c2ccc(CN3CC[C@H](N(C)C)C3)c(C(F)(F)F)c2)cc1Nc1nccc(-c2cncnc2)n1 [bafetinib]
Outline: (§1)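 K562 cells at 2×10^6 cells/mL were given 10 μM compound for 30 min. Aliquots then went through 3 min of heating across 48°C-58°C, were pooled, and were extracted in PBS with 0.5% NP-40 at 4°C, and the supernatant after 21,000xg for 90 min was quantified by TMTpro 16plex LC-MS/MS with channel sums equalised. Thermal stability relative to control samples, from duplicates, is given as log2 fold change.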

[1] = compound: Cc1cccc(CC(=O)N2CCc3c2ccc(-c2cn(C)c4ncnc(N)c24)c3F)n1
Outline: as §1

nilotinib = compound: Cc1cn(-c2cc(NC(=O)c3ccc(C)c(Nc4nccc(-c5cccnc5)n4)c3)cc(C(F)(F)F)c2)cn1 [nilotinib]
Outline: as §1

[2] = compound: Cc1nc(Nc2n[nH]c3c2CN(C(=O)N[C@H](CN(C)C)c2ccccc2)C3(C)C)c2sccc2n1
Outline: as §1

dasatinib = compound: Cc1nc(Nc2ncc(C(=O)Nc3c(C)cccc3Cl)s2)cc(N2CCN(CCO)CC2)n1 [dasatinib]
Outline: as §1

[3] = compound: Cc1ncc(-c2ccnc(Nc3ccc(S(C)(=O)=O)cc3)n2)n1C(C)C
Outline: as §1

[4] = compound: Cn1cc(-c2ccc3c(c2)CCN3C(=O)Cc2cccc(C(F)(F)F)c2)c2c(N)ncnc21
Outline: as §1

[5] = compound: Cn1cc(-c2ccc3nnc(C(F)(F)c4ccc5ncccc5c4)n3n2)cn1
Outline: as §1

tipifarnib = compound: Cn1cncc1[C@@](N)(c1ccc(Cl)cc1)c1ccc2c(c1)c(-c1cccc(Cl)c1)cc(=O)n2C [tipifarnib]
Outline: as §1

mubritinib = compound: FC(F)(F)c1ccc(/C=C/c2nc(COc3ccc(CCCCn4ccnn4)cc3)co2)cc1 [mubritinib]
Outline: as §1

[6] = compound: NC(=O)Nc1cc(-c2cccc(F)c2)sc1C(=O)N[C@H]1CCCNC1
Outline: as §1

[7] = compound: NC(=O)c1cnc(N[C@@H]2CCCC[C@@H]2N)nc1Nc1cccc(-n2nccn2)c1
Outline: as §1

[8] = compound: NC1(c2ccc(-c3nc4ccn5c(=O)[nH]nc5c4cc3-c3ccccc3)cc2)CCC1
Outline: as §1

[9] = compound: NCC(=O)Nc1ccc(-n2nc(C(F)(F)F)cc2-c2ccc3c(ccc4ccccc43)c2)cc1
Outline: as §1

entinostat = compound: Nc1ccccc1NC(=O)c1ccc(CNC(=O)OCc2cccnc2)cc1 [entinostat]
Outline: as §1

vorinostat = compound: O=C(CCCCCCC(=O)Nc1ccccc1)NO [vorinostat]
Outline: as §1

citarinostat = compound: O=C(CCCCCCNC(=O)c1cnc(N(c2ccccc2)c2ccccc2Cl)nc1)NO [citarinostat]
Outline: as §1

silmitasertib = compound: O=C(O)c1ccc2c(c1)nc(Nc1cccc(Cl)c1)c1ccncc12 [silmitasertib]
Outline: as §1

[10] = compound: O=C1NC(=O)C(c2cnc3ccccn23)=C1c1cn2c3c(cc(F)cc13)CN(C(=O)N1CCCCC1)CC2
Outline: as §1

[11] = compound: c1cc(OCCN2CCCCC2)cc(-c2n[nH]c3ccc(-c4nnc[nH]4)cc23)c1
Outline: as §1

Measured: log2 fold change

UBXN4 (UniProt Q92575)
inactive: bafetinib -0.053 | [1] 0.031 | nilotinib -0.052 | [2] 0.006 | dasatinib -0.034 | [3] -0.042 | [4] -0.032 | [5] 0.064 | tipifarnib -0.031 | mubritinib 0.089 | [6] -0.001 | [7] -0.064 | [8] -0.12 | [9] -0.004 | entinostat -0.006 | vorinostat 0.007 | citarinostat 0.056 | silmitasertib -0.016 | [10] 0 | [11] -0.018

UFD1 isoform 1 (UniProt Q92890)
inactive: bafetinib -0.007 | [1] 0.01 | nilotinib 0.025 | [2] -0.019 | dasatinib 0.031 | [3] -0.003 | [4] 0.006 | [5] 0.002 | tipifarnib -0.046 | mubritinib 0.041 | [6] -0.001 | [7] -0.015 | [8] -0.03 | [9] -0.001 | entinostat 0.01 | vorinostat 0.003 | citarinostat 0.061 | silmitasertib -0.014 | [10] 0.014 | [11] 0.034

VBP1 (UniProt P61758)
inactive: bafetinib -0.055 | [1] -0.005 | nilotinib 0.015 | [2] -0.003 | dasatinib 0.057 | [3] -0.008 | [4] 0.003 | [5] 0.025 | tipifarnib 0.01 | mubritinib 0.033 | [6] 0.007 | [7] -0.005 | [8] 0.015 | [9] 0.04 | entinostat -0.002 | vorinostat -0.031 | citarinostat 0.012 | silmitasertib -0.018 | [10] -0.031 | [11] -0.004

USP7 (UniProt Q93009)
inactive: bafetinib -0.018 | [1] 0.097 | nilotinib -0.076 | [2] -0.113 | dasatinib -0.272 | [3] -0.011 | [4] 0.101 | [5] 0.153 | tipifarnib -0.139 | mubritinib 0.068 | [6] -0.039 | [7] -0.062 | [8] -0.263 | [9] -0.07 | entinostat 0.097 | vorinostat 0.182 | citarinostat 0.096 | silmitasertib -0.028 | [10] -0.037 | [11] 0.046

USP24 (UniProt Q9UPU5)
inactive: bafetinib 0.037 | [1] 0.034 | nilotinib 0.096 | [2] 0.007 | dasatinib -0.098 | [3] 0.09 | [4] 0.144 | [5] 0.105 | tipifarnib -0.072 | mubritinib 0.056 | [6] 0.18 | [7] 0.079 | [8] -0.053 | [9] 0.07 | entinostat -0.095 | vorinostat -0.012 | citarinostat 0.012 | silmitasertib 0.188 | [10] -0.2 | [11] 0.11

VAPB (UniProt O95292)
inactive: bafetinib -0.018 | [1] 0.052 | nilotinib -0.001 | [2] -0.008 | dasatinib 0.005 | [3] -0.006 | [4] 0.041 | [5] -0.001 | tipifarnib 0.022 | mubritinib 0.026 | [6] 0.005 | [7] -0.031 | [8] -0.034 | [9] -0.037 | entinostat 0.005 | vorinostat -0.006 | citarinostat 0.057 | silmitasertib 0.009 | [10] 0.002 | [11] 0.014

UBXN1 (UniProt Q04323)
inactive: bafetinib -0.012 | [1] 0.012 | nilotinib -0.017 | [2] -0.019 | dasatinib -0.046 | [3] -0.007 | [4] -0.025 | [5] 0.05 | tipifarnib -0.016 | mubritinib 0.057 | [6] 0.004 | [7] -0.074 | [8] -0.088 | [9] -0.051 | entinostat 0.038 | vorinostat -0.016 | citarinostat 0.041 | silmitasertib 0.05 | [10] -0.012 | [11] -0.04

UBL4A (UniProt P11441)
inactive: bafetinib -0.033 | [1] -0.001 | nilotinib -0.041 | [2] 0.005 | dasatinib -0.022 | [3] 0.022 | [4] -0.009 | [5] 0.024 | tipifarnib -0.041 | mubritinib 0.017 | [6] -0.024 | [7] -0.025 | [8] -0.105 | [9] -0.013 | entinostat 0.076 | vorinostat 0.016 | citarinostat 0.073 | silmitasertib 0.047 | [10] -0.013 | [11] -0.043

UMPS (UniProt P11172)
inactive: bafetinib -0.027 | [1] -0.035 | nilotinib 0.024 | [2] -0.017 | dasatinib 0.006 | [3] -0.007 | [4] 0.02 | [5] 0.022 | tipifarnib -0.025 | mubritinib 0.049 | [6] 0 | [7] -0.008 | [8] -0.028 | [9] 0.024 | entinostat 0.012 | vorinostat 0.018 | citarinostat 0.031 | silmitasertib -0.028 | [10] 0 | [11] 0.007

UIMC1 (UniProt Q96RL1)
inactive: bafetinib 0.049 | [1] -0.12 | nilotinib 0.017 | [2] 0.031 | dasatinib 0.008 | [3] 0.015 | [4] -0.113 | [5] -0.082 | tipifarnib 0.114 | mubritinib -0.082 | [6] 0.011 | [7] 0.111 | [8] 0.185 | [9] 0 | entinostat -0.057 | vorinostat 0.03 | citarinostat -0.119 | silmitasertib 0.058 | [10] 0.277 | [11] -0.172

UXT isoform 2 (UniProt Q9UBK9)
inactive: bafetinib 0.016 | [1] 0.036 | nilotinib 0.04 | [2] -0.068 | dasatinib -0.033 | [3] 0.001 | [4] 0.11 | [5] 0.026 | tipifarnib -0.144 | mubritinib 0.014 | [6] -0.041 | [7] -0.067 | [8] -0.108 | [9] -0.011 | entinostat 0.004 | vorinostat 0.047 | citarinostat 0.129 | silmitasertib -0.033 | [10] -0.051 | [11] 0.007

Quoted at random: two records from the list
UIMC1 (UniProt Q96RL1)
inactive: bafetinib 0.049 | [1] -0.12 | nilotinib 0.017 | [2] 0.031 | dasatinib 0.008 | [3] 0.015 | [4] -0.113 | [5] -0.082 | tipifarnib 0.114 | mubritinib -0.082 | [6] 0.011 | [7] 0.111 | [8] 0.185 | [9] 0 | entinostat -0.057 | vorinostat 0.03 | citarinostat -0.119 | silmitasertib 0.058 | [10] 0.277 | [11] -0.172

UBL4A (UniProt P11441)
inactive: bafetinib -0.033 | [1] -0.001 | nilotinib -0.041 | [2] 0.005 | dasatinib -0.022 | [3] 0.022 | [4] -0.009 | [5] 0.024 | tipifarnib -0.041 | mubritinib 0.017 | [6] -0.024 | [7] -0.025 | [8] -0.105 | [9] -0.013 | entinostat 0.076 | vorinostat 0.016 | citarinostat 0.073 | silmitasertib 0.047 | [10] -0.013 | [11] -0.043

(next part)

UBE4A isoform 2 (UniProt Q14139)
inactive: bafetinib 0.01 | [1] 0.065 | nilotinib -0.111 | [2] -0.162 | dasatinib -0.196 | [3] 0.015 | [4] -0.183 | [5] -0.023 | tipifarnib -0.092 | mubritinib 0.021 | [6] -0.017 | [7] 0.01 | [8] -0.136 | [9] 0.001 | entinostat 0.146 | vorinostat 0.133 | citarinostat 0.059 | silmitasertib 0.117 | [10] 0.026 | [11] -0.014

USE1 (UniProt Q9NZ43)
inactive: bafetinib 0.009 | [1] -0.026 | nilotinib -0.012 | [2] -0.002 | dasatinib 0.064 | [3] -0.013 | [4] 0.02 | [5] -0.049 | tipifarnib 0.012 | mubritinib 0.056 | [6] -0.011 | [7] -0.012 | [8] -0.064 | [9] 0.01 | entinostat -0.007 | vorinostat 0.028 | citarinostat 0.045 | silmitasertib 0.016 | [10] 0.001 | [11] -0.013

VAPA isoform 2 (UniProt Q9P0L0)
inactive: bafetinib -0.065 | [1] 0.007 | nilotinib 0.012 | [2] -0.021 | dasatinib 0.023 | [3] -0.022 | [4] -0.021 | [5] -0.009 | tipifarnib 0.04 | mubritinib 0.02 | [6] -0.028 | [7] -0.01 | [8] 0.02 | [9] -0.023 | entinostat 0 | vorinostat -0.021 | citarinostat 0.022 | silmitasertib 0.008 | [10] -0.114 | [11] -0.001

UTP4 (UniProt Q969X6)
inactive: bafetinib -0.04 | [1] -0.013 | nilotinib 0.021 | [2] 0.035 | dasatinib 0.039 | [3] 0.143 | [4] -0.042 | [5] -0.014 | tipifarnib 0.058 | mubritinib -0.025 | [6] 0.049 | [7] 0.033 | [8] 0.075 | [9] 0.05 | entinostat -0.037 | vorinostat -0.051 | citarinostat -0.002 | silmitasertib 0.064 | [10] 0.06 | [11] -0.03
